No constants are given. Whether binding was seen depends on the method and setting. In cells and extracts the contact can be indirect. Some binding calls cover weakened binding; strength is not graded here.

Chains of the proteins cited; added tags and fusions are not shown. Residues count along the entry.
UniProt Q15109, residues 23-404: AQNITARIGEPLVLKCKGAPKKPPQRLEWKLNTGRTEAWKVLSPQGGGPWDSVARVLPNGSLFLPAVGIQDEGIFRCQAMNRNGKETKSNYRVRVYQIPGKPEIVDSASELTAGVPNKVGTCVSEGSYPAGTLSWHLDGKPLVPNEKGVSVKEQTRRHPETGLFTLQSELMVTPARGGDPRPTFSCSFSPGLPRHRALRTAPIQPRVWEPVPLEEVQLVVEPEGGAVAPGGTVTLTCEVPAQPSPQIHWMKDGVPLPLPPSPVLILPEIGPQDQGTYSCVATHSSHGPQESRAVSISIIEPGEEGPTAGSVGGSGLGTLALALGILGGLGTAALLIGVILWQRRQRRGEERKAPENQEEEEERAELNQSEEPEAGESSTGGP

Our source for the binding values is doi:10.1101/2025.09.24.678097.

This test has as its target receptor for advanced glycation end products (RAGE), His tag fused (UniProt Q15109). The test can be described thus: pull-down; His-tagged RAGE in 293T lysate (50 mM NaH2PO4, 300 mM NaCl, 10 mM imidazole, pH 8.0) incubated with 2 ug CTSG at 4 C for 2 hours, captured on Ni-NTA agarose beads, washed 3 times, Western blot with anti-His tag and anti-CTSG; the paper calls it co-immunoprecipitation; only the binder purified.

B1: Cathepsin G (enzyme, UniProt P08311 21-244)
chain: IIGGRESRPHSRPYMAYLQIQSPAGQSRCGGFLVREDFVLTAAHCWGSNINVTLGAHNIQRRENTQQHITARRAIRHPQYNQRTIQNDIMLLQLSRRVRRNRNVNPVALPRAQEGLRPGTLCTVAGWGRVSMRRGTDTLREVQLRVQRDRQCLRIFGSYDPRRQICVGDRRERKAAFKGDSGGPLLCNNVAHGIVSYGKSSGVPPEVFTRVSSFLPWIRTTMRS
With B1, the binding result is “binds”.
